Experimental data published in patent US20240390508A1, “HUMAN TRANSFERRIN RECEPTOR BINDING PEPTIDE-DRUG CONJUGATE” (priority 2021, published 2024).
At least one structure is not confirmed: it was looked up by name or label, or the drawing left a doubt.

Protein sequences, listed by entry. Tags and fused reporters are not part of them.
UniProt P02786, whole entry: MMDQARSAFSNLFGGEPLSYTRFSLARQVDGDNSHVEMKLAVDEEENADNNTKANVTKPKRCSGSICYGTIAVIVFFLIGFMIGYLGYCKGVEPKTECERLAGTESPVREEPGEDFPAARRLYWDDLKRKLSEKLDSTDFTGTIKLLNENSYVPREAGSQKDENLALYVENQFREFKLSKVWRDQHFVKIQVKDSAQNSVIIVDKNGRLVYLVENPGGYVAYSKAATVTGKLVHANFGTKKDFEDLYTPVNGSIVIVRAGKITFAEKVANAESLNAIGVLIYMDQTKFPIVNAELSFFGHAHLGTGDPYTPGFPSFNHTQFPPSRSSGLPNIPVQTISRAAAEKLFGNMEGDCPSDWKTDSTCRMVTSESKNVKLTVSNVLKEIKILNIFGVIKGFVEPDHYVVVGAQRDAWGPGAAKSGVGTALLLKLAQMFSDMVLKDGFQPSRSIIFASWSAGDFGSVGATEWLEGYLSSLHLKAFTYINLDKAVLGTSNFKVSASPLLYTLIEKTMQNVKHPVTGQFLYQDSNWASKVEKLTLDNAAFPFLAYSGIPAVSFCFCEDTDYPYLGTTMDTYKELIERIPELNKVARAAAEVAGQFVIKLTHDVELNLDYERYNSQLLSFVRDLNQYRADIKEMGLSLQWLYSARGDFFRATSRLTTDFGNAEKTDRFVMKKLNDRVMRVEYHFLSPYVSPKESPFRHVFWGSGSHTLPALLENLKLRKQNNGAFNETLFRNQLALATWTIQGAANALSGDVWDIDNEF

What follows are compounds tested against transferrin receptor (hTfR) (Homo sapiens, UniProt P02786) (assay: Intermolecular interaction evaluation test between transferrin receptor (hTfR) and peptide-nucleic acid conjugate using surface plasmon resonance (SPR)). Conditions: KD value to hTfR by SPR, Biacore T200, Single Cycle Kinetics, hTfR immobilized on NTA sensor chip.
Assay type: binding
Experimental: Intermolecular interaction evaluation test between transferrin receptor (hTfR) and peptide using surface plasmon resonance (SPR)
The various synthesized peptide-nucleic acid conjugates were tested for intermolecular interaction by surface plasmon resonance (SPR) of the peptide-nucleic acid conjugate with transferrin receptor (hTfR) using the method shown below. The specific test method is shown below.
NTA sensor chip (Global Life Science Technologies Japan Co., Ltd.) was inserted into Biacore T200 (Global Life Science Technologies Japan Co., Ltd.), prime operation was performed three times with running buffer: 10 mM HEPES pH 8.0 (Nacalai Tesque Co., Ltd.), 150 mM NaCl (Nacalai Tesque Co., Ltd.), 0.05% Tween 20 (Nacalai Tesque Co., Ltd.), 0.1% BSA (SIGMA-ALDRICH), and 1.0% DMSO (FUJIFILM Wako Pure Chemical Corporation), and equilibrated at a flow rate of 30 μL/min. 350 mM EDTA solution was reacted for 60 seconds at a flow rate of 10 μL/min, 0.5 mM NiCl2 solution (Kishida Chemical) was reacted for 60 seconds at a flow rate of 10 μL/min, and the NTA sensor chip was washed with 3 mM EDTA solution (Nacalai Tesque Co., Ltd.) for 60 seconds at a flow rate of 10 μL/min. After mixing 50 μL each of […] EDC solution (Global Life Science Technologies Japan Co., Ltd.) and […] NHS solution (Global Life Science Technologies Japan Co., Ltd.), the mixture was reacted for 420 seconds at a flow rate of 10 μL/min. 150 μL of a 0.5 μM hTfR solution was prepared by diluting with a running buffer and reacted for 300 seconds at a flow rate of 10 μL/min to immobilize hTfR on the NTA sensor chip. After immobilization, capping was performed by reacting with a 1.0 M ethanolamine aqueous solution (Global Life Science Technologies Japan Co., Ltd.) at a flow rate of 10 μL/min for 420 seconds. A peptide-nucleic acid conjugate solution adjusted to 10 mM in DMSO solution was diluted with running buffer to a final concentration of 10 μM peptide-nucleic acid conjugate solution, and 100 nM, 50 nM, 25 nM, 10 nM, 5 nM peptide-nucleic acid conjugate solutions were prepared. Using the aforementioned samples, the kinetics of the peptide against hTfR was obtained by SPR measurement.
The kinetics evaluation model was Single Cycle Kinetics, and curve fitting was performed using Biacore T200 Evaluation Software Version 3.0 (Global Life Science Technologies Japan Co., Ltd.). The obtained sensorgram was subjected to curve fitting using the least squares method, and the binding of the peptide-nucleic acid conjugate to hTfR was evaluated by determining the KD value.

`CC[C@H](C)[C@@H]1NC(=O)[C@H](Cc2ccc(O)cc2)NC(=O)[C@H](Cc2ccc(O)cc2)NC(=O)[C@H](CC(N)=O)NC(=O)[C@H](Cc2c[nH]c3ccccc23)NC(=O)[C@H](C(C)C)NC(=O)[C@H](Cc2ccccc2)N(C)C(=O)[C@H](C(C)C)NC(=O)[C@H](C)NC(=O)CSC[C@@H](C(=O)NCC(=O)N[C@@H](CCCCn2nnc3c2CCC2C(CC3)C2COC(=O)NCCCCCCOP(=O)(O)OC[C@H]2O[C@@H](n3cnc4c(=O)[nH]c(N)nc43)[C@H](OC)[C@@H]2OP(=O)(S)OC[C@H]2O[C@@H](n3cnc4c(N)ncnc43)[C@H](OC)[C@@H]2OP(=O)(S)OC[C@H]2O[C@@H](n3cnc4c(N)ncnc43)[C@H](OC)[C@@H]2OP(=O)(S)OC[C@H]2O[C@@H](n3ccc(N)nc3=O)C[C@@H]2OP(=O)(O)OC[C@H]2O[C@@H](n3cnc4c(N)ncnc43)[C@H](O)[C@@H]2OP(=O)(O)OC[C@H]2O[C@@H](n3ccc(N)nc3=O)C[C@@H]2OP(=O)(O)OC[C@H]2O[C@@H](n3ccc(N)nc3=O)C[C@@H]2OP(=O)(O)OC[C@H]2O[C@@H](n3cc(C)c(=O)[nH]c3=O)C[C@@H]2OP(=O)(O)OC[C@H]2O[C@@H](n3cc(C)c(=O)[nH]c3=O)C[C@@H]2OP(=O)(O)OC[C@H]2O[C@@H](n3ccc(N)nc3=O)C[C@@H]2OP(=O)(O)OC[C@H]2O[C@@H](n3cnc4c(N)ncnc43)[C@H](O)[C@@H]2OP(=O)(O)OC[C@H]2O[C@@H](n3cnc4c(=O)[nH]c(N)nc43)[C@H](O)[C@@H]2OP(=O)(O)OC[C@H]2O[C@@H](n3cnc4c(N)ncnc43)[C@H](O)[C@@H]2OP(=O)(S)OC[C@H]2O[C@@H](n3cnc4c(N)ncnc43)[C@H](OC)[C@@H]2OP(=O)(S)OC[C@H]2O[C@@H](n3ccc(N)nc3=O)[C@H](OC)[C@@H]2OP(=O)(S)OC[C@H]2O[C@@H](n3ccc(N)nc3=O)[C@H](OC)[C@@H]2O)C(N)=O)NC(=O)[C@H](Cc2ccc(O)cc2)N(C)C(=O)[C@H](Cc2ccc(O)cc2)NC(=O)[C@H](CCCNC(=N)N)NC(=O)[C@H](CCCNC(=N)N)NC(=O)[C@H]([C@@H](C)CC)NC1=O` (single isomer, unassigned) [Example 17] was tested. Which Kd did it give?
The Kd was 100 to 1000 nM.

`CC[C@H](C)[C@@H]1NC(=O)[C@H](Cc2ccc(O)cc2)NC(=O)[C@H](Cc2ccc(O)cc2)NC(=O)[C@H](CC(N)=O)NC(=O)[C@H](Cc2c[nH]c3ccccc23)NC(=O)[C@H](C(C)C)NC(=O)[C@H](Cc2ccccc2)N(C)C(=O)[C@H](C(C)C)NC(=O)[C@H](C)NC(=O)CSC[C@@H](C(=O)NCC(=O)N[C@@H](CCCCn2nnc3c2CCC2C(CC3)C2COC(=O)NCCCCCCOP(=O)(O)OC[C@H]2O[C@@H](n3ccc(N)nc3=O)[C@H](OC)[C@@H]2OP(=O)(S)OC[C@H]2O[C@@H](n3ccc(N)nc3=O)[C@H](OC)[C@@H]2OP(=O)(S)OC[C@H]2O[C@@H](n3ccc(=O)[nH]c3=O)[C@H](OC)[C@@H]2OP(=O)(S)OC[C@H]2O[C@@H](n3cc(C)c(=O)[nH]c3=O)C[C@@H]2OP(=O)(O)OC[C@H]2O[C@@H](n3ccc(N)nc3=O)C[C@@H]2OP(=O)(O)OC[C@H]2O[C@@H](n3cnc4c(N)ncnc43)[C@H](O)[C@@H]2OP(=O)(O)OC[C@H]2O[C@@H](n3cnc4c(=O)[nH]c(N)nc43)[C@H](O)[C@@H]2OP(=O)(O)OC[C@H]2O[C@@H](n3cnc4c(N)ncnc43)[C@H](O)[C@@H]2OP(=O)(O)OC[C@H]2O[C@@H](n3cnc4c(N)ncnc43)[C@H](O)[C@@H]2OP(=O)(O)OC[C@H]2O[C@@H](n3ccc(N)nc3=O)C[C@@H]2OP(=O)(O)OC[C@H]2O[C@@H](n3ccc(N)nc3=O)C[C@@H]2OP(=O)(O)OC[C@H]2O[C@@H](n3cnc4c(=O)[nH]c(N)nc43)[C@H](O)[C@@H]2OP(=O)(O)OC[C@H]2O[C@@H](n3cnc4c(=O)[nH]c(N)nc43)[C@H](O)[C@@H]2OP(=O)(S)OC[C@H]2O[C@@H](n3cnc4c(N)ncnc43)[C@H](OC)[C@@H]2OP(=O)(S)OC[C@H]2O[C@@H](n3cnc4c(=O)[nH]c(N)nc43)[C@H](OC)[C@@H]2OP(=O)(S)OC[C@H]2O[C@@H](n3cnc4c(=O)[nH]c(N)nc43)[C@H](OC)[C@@H]2O)C(N)=O)NC(=O)[C@H](Cc2ccc(O)cc2)N(C)C(=O)[C@H](Cc2ccc(O)cc2)NC(=O)[C@H](CCCNC(=N)N)NC(=O)[C@H](CCCNC(=N)N)NC(=O)[C@H]([C@@H](C)CC)NC1=O` (single isomer, unassigned) [Example 18] was tested. Which Kd did it give?
The Kd was less than 100 nM.

Which Kd does the source give for `CC[C@H](C)[C@@H]1NC(=O)[C@H](Cc2ccc(O)cc2)NC(=O)[C@H](Cc2ccc(O)cc2)NC(=O)[C@H](CC(N)=O)NC(=O)[C@H](Cc2c[nH]c3ccccc23)NC(=O)[C@H](C(C)C)NC(=O)[C@H](Cc2ccccc2)N(C)C(=O)[C@H](C(C)C)NC(=O)[C@H](C)NC(=O)CSC[C@@H](C(=O)NCC(=O)N[C@@H](CCCCn2nnc3c2CCC2C(CC3)C2COC(=O)NCCCCCCOP(=O)(O)OC[C@H]2O[C@@H](n3cnc4c(=O)[nH]c(N)nc43)[C@H](OC)[C@@H]2OP(=O)(S)OC[C@H]2O[C@@H](n3cnc4c(N)ncnc43)[C@H](OC)[C@@H]2OP(=O)(S)OC[C@H]2O[C@@H](n3cnc4c(N)ncnc43)[C@H](OC)[C@@H]2OP(=O)(S)OC[C@H]2O[C@@H](n3ccc(N)nc3=O)[C@H](OC)[C@@H]2OP(=O)(O)OC[C@H]2O[C@@H](n3cnc4c(N)ncnc43)[C@H](O)[C@@H]2OP(=O)(O)OC[C@H]2O[C@@H](n3ccc(N)nc3=O)[C@H](OC)[C@@H]2OP(=O)(O)OC[C@H]2O[C@@H](n3ccc(N)nc3=O)[C@H](OC)[C@@H]2OP(=O)(O)OC[C@H]2O[C@@H](n3ccc(=O)[nH]c3=O)[C@H](OC)[C@@H]2OP(=O)(O)OC[C@H]2O[C@@H](n3ccc(=O)[nH]c3=O)[C@H](OC)[C@@H]2OP(=O)(O)OC[C@H]2O[C@@H](n3ccc(N)nc3=O)[C@H](OC)[C@@H]2OP(=O)(O)OC[C@H]2O[C@@H](n3cnc4c(N)ncnc43)[C@H](O)[C@@H]2OP(=O)(O)OC[C@H]2O[C@@H](n3cnc4c(=O)[nH]c(N)nc43)[C@H](O)[C@@H]2OP(=O)(O)OC[C@H]2O[C@@H](n3cnc4c(N)ncnc43)[C@H](O)[C@@H]2OP(=O)(S)OC[C@H]2O[C@@H](n3cnc4c(N)ncnc43)[C@H](OC)[C@@H]2OP(=O)(S)OC[C@H]2O[C@@H](n3ccc(N)nc3=O)[C@H](OC)[C@@H]2OP(=O)(S)OC[C@H]2O[C@@H](n3ccc(N)nc3=O)[C@H](OC)[C@@H]2O)C(N)=O)NC(=O)[C@H](Cc2ccc(O)cc2)N(C)C(=O)[C@H](Cc2ccc(O)cc2)NC(=O)[C@H](CCCNC(=N)N)NC(=O)[C@H](CCCNC(=N)N)NC(=O)[C@H]([C@@H](C)CC)NC1=O` (single isomer, unassigned) [Example 19] here?
The Kd was less than 100 nM.
